From the supplement of paper PMC11006884
What follows is the remainder of the data, with few or none of the targets with a hit. This is a noisy data set. Only a part is listed here, and it is no random draw.

Sequences of proteins named here, by UniProt entry; tags and fusion partners are left off. A change or cut given only in a name is not applied to a line headed by its entry.
UniProt Q9BVG4: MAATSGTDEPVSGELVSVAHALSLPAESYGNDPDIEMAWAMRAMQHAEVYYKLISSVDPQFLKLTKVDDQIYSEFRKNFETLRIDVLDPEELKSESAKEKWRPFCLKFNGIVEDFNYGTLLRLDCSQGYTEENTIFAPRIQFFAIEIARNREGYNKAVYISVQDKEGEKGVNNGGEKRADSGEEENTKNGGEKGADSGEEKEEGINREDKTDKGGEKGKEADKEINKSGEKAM
UniProt Q9BSJ5: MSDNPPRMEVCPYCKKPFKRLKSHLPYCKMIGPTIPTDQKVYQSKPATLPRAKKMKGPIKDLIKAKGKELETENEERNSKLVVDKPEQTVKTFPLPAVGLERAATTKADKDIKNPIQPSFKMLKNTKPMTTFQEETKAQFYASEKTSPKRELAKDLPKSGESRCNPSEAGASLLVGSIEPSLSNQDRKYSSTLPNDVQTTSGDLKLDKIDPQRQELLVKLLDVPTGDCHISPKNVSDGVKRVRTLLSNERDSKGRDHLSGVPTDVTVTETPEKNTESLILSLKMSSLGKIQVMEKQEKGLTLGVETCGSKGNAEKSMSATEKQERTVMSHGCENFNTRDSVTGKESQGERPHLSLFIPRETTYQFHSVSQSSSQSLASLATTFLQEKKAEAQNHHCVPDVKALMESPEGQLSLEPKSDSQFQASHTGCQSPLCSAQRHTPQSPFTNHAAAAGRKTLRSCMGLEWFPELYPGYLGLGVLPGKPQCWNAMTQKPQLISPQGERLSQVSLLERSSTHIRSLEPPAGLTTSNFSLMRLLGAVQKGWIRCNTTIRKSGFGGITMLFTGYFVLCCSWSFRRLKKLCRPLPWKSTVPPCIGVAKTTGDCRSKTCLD
UniProt Q9C0C2: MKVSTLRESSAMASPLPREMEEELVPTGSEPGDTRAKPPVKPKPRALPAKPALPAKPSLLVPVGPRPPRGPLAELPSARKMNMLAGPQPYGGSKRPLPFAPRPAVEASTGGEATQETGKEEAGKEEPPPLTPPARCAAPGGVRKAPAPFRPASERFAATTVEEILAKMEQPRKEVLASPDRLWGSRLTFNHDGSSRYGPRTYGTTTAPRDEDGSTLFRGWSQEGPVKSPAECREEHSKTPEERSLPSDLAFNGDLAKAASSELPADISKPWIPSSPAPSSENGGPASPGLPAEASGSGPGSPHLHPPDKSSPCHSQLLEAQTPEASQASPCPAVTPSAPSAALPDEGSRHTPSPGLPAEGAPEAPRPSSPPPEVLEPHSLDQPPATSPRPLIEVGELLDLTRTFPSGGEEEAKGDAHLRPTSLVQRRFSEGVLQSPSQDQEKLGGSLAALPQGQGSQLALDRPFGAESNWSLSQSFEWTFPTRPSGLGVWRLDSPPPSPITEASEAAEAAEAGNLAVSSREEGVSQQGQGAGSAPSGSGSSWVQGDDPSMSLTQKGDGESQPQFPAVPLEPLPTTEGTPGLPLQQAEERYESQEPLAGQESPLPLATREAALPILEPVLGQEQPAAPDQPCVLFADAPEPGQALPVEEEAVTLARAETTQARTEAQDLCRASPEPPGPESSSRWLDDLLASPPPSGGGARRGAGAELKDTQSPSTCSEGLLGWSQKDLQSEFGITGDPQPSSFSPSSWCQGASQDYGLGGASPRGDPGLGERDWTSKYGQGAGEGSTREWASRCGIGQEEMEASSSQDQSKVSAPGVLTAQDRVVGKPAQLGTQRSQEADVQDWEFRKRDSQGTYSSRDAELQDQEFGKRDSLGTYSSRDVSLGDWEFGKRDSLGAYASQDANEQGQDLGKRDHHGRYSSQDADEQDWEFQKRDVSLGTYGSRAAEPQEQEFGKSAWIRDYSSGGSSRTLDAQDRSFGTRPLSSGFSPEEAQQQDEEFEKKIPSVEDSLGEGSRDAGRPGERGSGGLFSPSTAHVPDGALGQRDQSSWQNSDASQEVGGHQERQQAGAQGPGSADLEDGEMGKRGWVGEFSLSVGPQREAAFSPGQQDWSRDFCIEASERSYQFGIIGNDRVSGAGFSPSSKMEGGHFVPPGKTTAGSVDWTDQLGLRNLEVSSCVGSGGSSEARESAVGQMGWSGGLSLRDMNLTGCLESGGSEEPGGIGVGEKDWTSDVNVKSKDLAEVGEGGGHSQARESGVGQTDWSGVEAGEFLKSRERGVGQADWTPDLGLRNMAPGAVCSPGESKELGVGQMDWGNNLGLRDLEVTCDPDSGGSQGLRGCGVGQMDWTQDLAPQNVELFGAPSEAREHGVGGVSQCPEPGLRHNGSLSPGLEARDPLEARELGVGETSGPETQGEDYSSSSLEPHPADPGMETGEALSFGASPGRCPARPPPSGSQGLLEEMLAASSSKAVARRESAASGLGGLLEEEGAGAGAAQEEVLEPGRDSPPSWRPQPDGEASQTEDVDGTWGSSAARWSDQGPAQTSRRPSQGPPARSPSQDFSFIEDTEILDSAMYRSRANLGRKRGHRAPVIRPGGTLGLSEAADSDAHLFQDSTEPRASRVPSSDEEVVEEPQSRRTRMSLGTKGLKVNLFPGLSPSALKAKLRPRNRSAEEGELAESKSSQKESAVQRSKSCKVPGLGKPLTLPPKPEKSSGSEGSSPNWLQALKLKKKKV
UniProt Q9BQS8: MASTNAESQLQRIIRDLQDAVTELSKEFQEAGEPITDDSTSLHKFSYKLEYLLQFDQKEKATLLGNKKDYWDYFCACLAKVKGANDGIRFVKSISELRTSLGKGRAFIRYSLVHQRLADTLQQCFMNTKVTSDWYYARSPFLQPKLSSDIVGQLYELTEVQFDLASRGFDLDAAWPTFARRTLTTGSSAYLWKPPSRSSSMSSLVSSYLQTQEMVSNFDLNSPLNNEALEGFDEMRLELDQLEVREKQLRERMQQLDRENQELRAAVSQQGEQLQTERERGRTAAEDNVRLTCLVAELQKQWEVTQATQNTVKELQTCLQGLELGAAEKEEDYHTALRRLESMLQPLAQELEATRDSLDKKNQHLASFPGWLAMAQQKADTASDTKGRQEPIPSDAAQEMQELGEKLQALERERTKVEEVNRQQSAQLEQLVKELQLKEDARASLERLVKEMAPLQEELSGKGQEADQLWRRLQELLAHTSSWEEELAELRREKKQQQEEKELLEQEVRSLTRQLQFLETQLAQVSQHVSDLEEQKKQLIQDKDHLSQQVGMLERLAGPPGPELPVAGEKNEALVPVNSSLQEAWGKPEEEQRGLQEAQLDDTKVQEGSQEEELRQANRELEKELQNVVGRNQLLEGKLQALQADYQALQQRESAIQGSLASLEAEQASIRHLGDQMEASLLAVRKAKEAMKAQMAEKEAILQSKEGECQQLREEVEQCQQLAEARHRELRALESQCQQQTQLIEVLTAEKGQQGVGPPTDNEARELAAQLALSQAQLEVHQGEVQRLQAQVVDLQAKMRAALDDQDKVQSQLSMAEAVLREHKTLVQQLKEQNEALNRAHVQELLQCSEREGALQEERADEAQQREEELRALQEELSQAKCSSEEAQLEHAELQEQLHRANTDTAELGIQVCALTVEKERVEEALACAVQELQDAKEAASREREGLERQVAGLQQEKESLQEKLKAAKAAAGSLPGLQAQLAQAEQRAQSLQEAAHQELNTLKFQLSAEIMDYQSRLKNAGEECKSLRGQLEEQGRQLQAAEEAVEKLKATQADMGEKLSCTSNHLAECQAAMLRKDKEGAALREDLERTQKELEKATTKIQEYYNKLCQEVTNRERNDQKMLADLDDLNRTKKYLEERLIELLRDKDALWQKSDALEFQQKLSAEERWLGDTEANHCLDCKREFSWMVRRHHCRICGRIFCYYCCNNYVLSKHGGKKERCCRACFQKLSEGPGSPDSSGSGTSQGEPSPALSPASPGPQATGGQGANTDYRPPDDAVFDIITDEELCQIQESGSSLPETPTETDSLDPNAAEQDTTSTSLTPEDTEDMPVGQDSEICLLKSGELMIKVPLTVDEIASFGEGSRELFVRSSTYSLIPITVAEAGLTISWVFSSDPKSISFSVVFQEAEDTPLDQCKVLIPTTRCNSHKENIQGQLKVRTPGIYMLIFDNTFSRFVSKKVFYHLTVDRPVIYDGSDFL
UniProt Q9H0D6: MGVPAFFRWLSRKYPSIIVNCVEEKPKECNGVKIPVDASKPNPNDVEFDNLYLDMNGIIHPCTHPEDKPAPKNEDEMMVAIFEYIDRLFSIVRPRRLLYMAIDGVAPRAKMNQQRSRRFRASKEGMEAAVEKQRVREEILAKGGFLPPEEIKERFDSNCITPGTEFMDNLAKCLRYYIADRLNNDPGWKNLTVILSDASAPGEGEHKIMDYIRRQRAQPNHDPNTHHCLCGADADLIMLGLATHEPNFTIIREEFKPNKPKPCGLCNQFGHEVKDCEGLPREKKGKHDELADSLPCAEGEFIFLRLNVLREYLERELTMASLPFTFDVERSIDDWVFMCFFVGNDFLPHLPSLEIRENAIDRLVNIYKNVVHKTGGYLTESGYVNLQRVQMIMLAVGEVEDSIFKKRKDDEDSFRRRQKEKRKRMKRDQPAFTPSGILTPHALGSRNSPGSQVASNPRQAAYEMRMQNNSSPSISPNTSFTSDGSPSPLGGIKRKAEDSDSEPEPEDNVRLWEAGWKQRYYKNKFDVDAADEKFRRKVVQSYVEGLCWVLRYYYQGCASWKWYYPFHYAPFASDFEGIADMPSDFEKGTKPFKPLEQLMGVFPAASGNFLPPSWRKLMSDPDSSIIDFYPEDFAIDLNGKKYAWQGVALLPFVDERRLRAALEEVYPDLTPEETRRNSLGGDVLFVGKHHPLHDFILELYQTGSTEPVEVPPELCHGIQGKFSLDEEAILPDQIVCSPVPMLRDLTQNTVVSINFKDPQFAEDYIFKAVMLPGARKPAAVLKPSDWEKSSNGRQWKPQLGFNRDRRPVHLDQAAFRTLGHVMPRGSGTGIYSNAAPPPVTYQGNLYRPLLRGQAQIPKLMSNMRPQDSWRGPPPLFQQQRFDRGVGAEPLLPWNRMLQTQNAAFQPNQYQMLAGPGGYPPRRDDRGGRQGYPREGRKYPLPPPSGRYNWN
UniProt Q9BTD8: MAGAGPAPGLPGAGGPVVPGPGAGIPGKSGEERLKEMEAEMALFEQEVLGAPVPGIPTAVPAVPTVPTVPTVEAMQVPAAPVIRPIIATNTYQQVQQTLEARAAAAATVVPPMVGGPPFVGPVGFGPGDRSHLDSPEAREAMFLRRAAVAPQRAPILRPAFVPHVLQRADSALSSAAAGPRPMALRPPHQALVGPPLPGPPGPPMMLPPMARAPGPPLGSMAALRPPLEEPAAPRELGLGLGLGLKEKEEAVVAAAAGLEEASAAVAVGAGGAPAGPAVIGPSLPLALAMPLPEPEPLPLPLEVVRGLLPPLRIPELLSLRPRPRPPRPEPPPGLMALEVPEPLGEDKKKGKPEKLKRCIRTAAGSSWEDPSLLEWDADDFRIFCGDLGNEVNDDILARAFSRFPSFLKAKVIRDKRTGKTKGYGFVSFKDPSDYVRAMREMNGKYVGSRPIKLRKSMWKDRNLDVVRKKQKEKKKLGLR
UniProt Q9BZV1: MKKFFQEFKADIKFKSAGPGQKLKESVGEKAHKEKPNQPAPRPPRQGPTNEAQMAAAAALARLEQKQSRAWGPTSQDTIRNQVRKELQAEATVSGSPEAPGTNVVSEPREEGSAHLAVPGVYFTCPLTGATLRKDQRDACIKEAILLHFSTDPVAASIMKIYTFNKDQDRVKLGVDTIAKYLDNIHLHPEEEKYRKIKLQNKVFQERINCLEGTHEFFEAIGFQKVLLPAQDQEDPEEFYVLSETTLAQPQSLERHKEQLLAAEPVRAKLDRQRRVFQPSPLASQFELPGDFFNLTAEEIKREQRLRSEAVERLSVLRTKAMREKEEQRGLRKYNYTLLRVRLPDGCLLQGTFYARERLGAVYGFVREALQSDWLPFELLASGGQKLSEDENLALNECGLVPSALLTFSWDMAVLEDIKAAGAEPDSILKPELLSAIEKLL
UniProt Q9BWD1: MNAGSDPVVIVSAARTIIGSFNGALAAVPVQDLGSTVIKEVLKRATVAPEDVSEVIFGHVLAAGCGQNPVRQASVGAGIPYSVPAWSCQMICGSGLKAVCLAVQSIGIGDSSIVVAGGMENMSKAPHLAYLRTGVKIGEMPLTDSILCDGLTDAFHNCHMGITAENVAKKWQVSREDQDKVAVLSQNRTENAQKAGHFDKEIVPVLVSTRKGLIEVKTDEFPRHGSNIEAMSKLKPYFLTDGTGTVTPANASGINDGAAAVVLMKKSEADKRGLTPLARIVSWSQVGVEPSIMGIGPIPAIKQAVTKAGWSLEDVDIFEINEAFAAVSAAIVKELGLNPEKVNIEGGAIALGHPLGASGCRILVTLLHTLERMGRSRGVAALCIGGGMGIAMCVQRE
UniProt Q9BUH6, whole entry: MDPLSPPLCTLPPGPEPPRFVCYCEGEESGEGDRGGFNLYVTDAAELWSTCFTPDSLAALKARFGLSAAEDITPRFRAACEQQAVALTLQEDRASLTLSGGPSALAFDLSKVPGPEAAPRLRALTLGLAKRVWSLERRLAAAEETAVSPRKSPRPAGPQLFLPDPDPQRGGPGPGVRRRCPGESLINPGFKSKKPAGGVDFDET

Compound: COC(=O)/C=C/c1ccccc1 [methyl cinnamate]
Assay: log2 ratio of iodoacetamide-alkyne labeling of the cysteine site, DMSO over compound (competition); higher = stronger covalent engagement of the cysteine by the compound, active = 1 or more
Details: 500 µM; treatment time 1 h; system: HEK293T cell lysate
Outline: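 The log2 competition ratio per cysteine is defined as mean reporter intensity in control channels over mean reporter intensity in compound channels. Lysate from HEK293T cells (2 mg/mL) received electrophile (500 µM) or vehicle for 1 h at ambient temperature, followed by iodoacetamide alkyne for 1 h. Samples were clicked to sCIP-TMT reagents, pooled, trypsin-digested overnight at 37 °C, streptavidin-enriched, acid-eluted and run on Orbitrap Eclipse LC-MS/MS with FAIMS, with quantification in FragPipe. Three replicates with duplicate channels were used, and any cysteine quantified in only one replicate was excluded.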

log2 ratio of iodoacetamide-alkyne labeling, inactive:
C20orf27 C156 (UniProt Q9GZN8) -0.363, MRPL4 C311 (UniProt Q9BYD3) -0.168, RNF126 C229 (UniProt Q9BV68) -0.494, UniProt Q9BXJ9_C721 0.367, UniProt Q9BVG4_C125 0.33, C17orf80 C164 (UniProt Q9BSJ5) 0.421, TOLLIP C229 (UniProt Q9H0E2) 0.013, SSBP4 C81 (UniProt Q9BWG4) 0.363, TNKS1BP1 C1337 (UniProt Q9C0C2) 0.181, UniProt Q9BXJ9_C817 0.0122, TARS2 C322 (UniProt Q9BW92) 0.0776, FYCO1 C882 (UniProt Q9BQS8) 0.223, HNRNPUL1 C421 (UniProt Q9BUJ2) 0.15, PAPOLG C604 (UniProt Q9BWT3) 0.104, REXO4 C382 (UniProt Q9GZR2) 0.144, ILKAP C221 (UniProt Q9H0C8) -0.153, FANCD2 C758 (UniProt Q9BXW9) -0.177, XRN2 C62 (UniProt Q9H0D6) -0.148, DIDO1 C1665 (UniProt Q9BTC0) 0.525, C2orf49 C10 (UniProt Q9BVC5) 0.216, RBM42 C385 (UniProt Q9BTD8) 0.0784, UNK C383 (UniProt Q9C0B0) 0.354, SLK C1153 (UniProt Q9H2G2) 0.454, ANP32E C87 (UniProt Q9BTT0) 0.483, DHX36 C234 (UniProt Q9H2U1) -0.0698, ANAPC1 C729 (UniProt Q9H1A4) -0.0284, CSTF2T C441 (UniProt Q9H0L4) 0.143, UBXN6 C210 (UniProt Q9BZV1) -0.348, GNL3 C131 (UniProt Q9BVP2) 0.122, MSTO1 C46 (UniProt Q9BUK6) 0.299, ACAT2 C158 (UniProt Q9BWD1) 0.0477, GINS4 C53 (UniProt Q9BRT9) 0.261, UniProt Q9BUH6_C180 0.247, SETD2 C958 (UniProt Q9BYW2) 0.271, TNKS1BP1 C1175 (UniProt Q9C0C2) 0.323, DIDO1 C350 (UniProt Q9BTC0) 0.207, TBCD C773 (UniProt Q9BTW9) -0.03
